Sequences of proteins named here, by UniProt entry; tags and fusion partners are left off.
UniProt P35222: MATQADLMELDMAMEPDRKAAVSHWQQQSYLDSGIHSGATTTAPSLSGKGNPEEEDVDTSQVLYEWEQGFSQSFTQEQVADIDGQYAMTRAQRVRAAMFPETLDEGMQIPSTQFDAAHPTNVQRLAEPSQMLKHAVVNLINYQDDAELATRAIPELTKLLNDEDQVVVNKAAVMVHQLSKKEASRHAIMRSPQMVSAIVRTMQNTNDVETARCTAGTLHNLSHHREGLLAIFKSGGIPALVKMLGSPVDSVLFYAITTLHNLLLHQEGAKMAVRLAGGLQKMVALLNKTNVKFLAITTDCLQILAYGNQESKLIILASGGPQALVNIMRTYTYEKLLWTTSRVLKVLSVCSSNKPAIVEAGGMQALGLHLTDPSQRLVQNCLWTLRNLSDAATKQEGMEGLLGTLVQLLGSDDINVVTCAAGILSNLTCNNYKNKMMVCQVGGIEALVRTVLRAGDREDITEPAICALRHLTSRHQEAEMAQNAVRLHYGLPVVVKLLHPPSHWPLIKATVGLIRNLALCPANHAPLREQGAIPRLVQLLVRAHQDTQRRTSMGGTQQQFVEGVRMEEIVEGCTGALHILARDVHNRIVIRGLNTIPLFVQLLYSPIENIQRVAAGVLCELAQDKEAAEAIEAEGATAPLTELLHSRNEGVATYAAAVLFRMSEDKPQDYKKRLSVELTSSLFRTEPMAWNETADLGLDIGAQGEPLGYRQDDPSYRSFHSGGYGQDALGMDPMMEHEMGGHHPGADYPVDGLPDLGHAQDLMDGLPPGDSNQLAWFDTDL
UniProt O00255: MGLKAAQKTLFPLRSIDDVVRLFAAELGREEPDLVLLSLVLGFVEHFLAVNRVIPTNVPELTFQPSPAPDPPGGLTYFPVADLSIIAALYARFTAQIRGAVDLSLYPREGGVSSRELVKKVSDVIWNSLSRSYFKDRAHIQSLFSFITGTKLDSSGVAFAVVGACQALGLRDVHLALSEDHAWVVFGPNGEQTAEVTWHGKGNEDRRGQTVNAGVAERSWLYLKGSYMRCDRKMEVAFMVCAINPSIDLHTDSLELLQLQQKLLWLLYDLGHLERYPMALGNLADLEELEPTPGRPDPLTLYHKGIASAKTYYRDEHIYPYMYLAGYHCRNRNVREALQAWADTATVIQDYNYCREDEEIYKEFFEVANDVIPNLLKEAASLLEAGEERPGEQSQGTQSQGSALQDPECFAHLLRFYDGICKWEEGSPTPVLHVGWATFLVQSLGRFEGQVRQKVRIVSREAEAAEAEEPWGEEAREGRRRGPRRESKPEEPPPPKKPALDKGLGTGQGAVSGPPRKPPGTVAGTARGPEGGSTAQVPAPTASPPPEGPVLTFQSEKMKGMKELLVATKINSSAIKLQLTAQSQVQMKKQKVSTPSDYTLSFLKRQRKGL

In publication PMC11425246:

Molecular target: Flag‐β‐Catenin (UniProt P35222)
Test: affinity purification with mass spectrometry; lysate (NP‐40 lysis buffer) of stable Flag‐β‐Catenin‐expressing QGP‐1 cells, anti‐Flag Ab or rabbit IgG control, Protein A+G agarose, 4 °C; SDS‐PAGE, silver staining, trypsin digest, LC/MS‐MS

- binding: binds
Substance: MEN1 (endogenous) (from UniProt O00255 1-610)

Results are given in words; binding and its absence hold for the method and conditions named. In cells and extracts the contact can be indirect. These calls come from enrichment with a bait or labelling near it, and not all partners need be listed.
